Measurements: paper doi:10.1101/2025.02.21.639583
Where two headings read alike, the source gives them in different places. Results are given in words; binding and its absence hold for the method and conditions named. Binding seen in cells or lysates may run through a third protein. Here binding means that the protein was enriched with, or labelled near, the bait; the list need not be complete. Sequences can lack the tags named with a protein.

Protein sequences, listed by entry. Tags and fused reporters are not part of them.
UniProt P19524: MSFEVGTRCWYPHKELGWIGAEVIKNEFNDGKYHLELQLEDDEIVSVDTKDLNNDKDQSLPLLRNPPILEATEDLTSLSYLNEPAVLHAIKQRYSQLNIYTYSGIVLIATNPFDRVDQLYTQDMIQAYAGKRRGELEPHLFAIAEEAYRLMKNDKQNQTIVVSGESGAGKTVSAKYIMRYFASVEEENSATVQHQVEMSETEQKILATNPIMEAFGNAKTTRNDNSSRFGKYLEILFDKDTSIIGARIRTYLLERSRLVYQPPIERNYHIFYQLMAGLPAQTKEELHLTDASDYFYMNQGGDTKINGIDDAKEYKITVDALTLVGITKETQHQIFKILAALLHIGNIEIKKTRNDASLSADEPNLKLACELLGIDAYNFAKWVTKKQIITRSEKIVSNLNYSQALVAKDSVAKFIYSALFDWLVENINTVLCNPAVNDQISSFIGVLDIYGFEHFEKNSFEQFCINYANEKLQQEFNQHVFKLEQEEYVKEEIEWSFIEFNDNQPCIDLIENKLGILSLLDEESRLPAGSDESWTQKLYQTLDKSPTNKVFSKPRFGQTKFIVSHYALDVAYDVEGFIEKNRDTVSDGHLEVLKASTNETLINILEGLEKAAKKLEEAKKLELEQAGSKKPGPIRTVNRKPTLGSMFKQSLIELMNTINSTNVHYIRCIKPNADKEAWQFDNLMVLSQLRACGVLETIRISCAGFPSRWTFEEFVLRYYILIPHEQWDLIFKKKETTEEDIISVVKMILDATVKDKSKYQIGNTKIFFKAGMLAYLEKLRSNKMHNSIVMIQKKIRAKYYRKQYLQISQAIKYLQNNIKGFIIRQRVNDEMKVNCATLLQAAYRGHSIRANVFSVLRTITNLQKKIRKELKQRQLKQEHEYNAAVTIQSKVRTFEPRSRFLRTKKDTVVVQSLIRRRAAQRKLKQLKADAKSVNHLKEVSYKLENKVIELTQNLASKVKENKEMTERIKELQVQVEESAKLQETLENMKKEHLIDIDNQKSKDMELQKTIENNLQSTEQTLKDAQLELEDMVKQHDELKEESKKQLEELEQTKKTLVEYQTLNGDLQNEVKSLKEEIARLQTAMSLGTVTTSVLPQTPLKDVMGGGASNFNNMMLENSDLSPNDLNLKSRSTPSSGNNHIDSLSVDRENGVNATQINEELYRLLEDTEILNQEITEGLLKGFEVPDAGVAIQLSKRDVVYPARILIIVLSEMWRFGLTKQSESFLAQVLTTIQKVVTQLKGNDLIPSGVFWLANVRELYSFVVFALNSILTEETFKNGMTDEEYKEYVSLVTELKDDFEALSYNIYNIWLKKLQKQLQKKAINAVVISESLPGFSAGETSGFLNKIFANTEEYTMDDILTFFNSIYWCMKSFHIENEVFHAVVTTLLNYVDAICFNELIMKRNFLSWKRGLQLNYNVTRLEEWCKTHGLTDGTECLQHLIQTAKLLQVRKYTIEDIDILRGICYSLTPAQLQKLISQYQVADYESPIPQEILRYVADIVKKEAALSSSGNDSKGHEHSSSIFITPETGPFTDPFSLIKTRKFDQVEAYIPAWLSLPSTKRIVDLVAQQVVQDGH

T1: Ldm1-GFP (Lipid Droplet Motility 1 / Yer085c, C-terminally GFP-tagged, TEF2 promoter) (S. cerevisiae) (UniProt P40058)
T1 sequence: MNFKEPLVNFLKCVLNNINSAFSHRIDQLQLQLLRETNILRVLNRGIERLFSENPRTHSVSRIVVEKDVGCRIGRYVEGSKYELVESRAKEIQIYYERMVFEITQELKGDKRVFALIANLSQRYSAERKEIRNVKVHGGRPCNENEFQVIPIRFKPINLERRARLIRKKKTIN


What was measured:
[1] = target: T1, Ldm1-GFP (Lipid Droplet Motility 1 / Yer085c, C-terminally GFP-tagged, TEF2 promoter) (S. cerevisiae); assay: affinity purification with mass spectrometry
[2] = target: T1, Ldm1-GFP (Lipid Droplet Motility 1 / Yer085c, C-terminally GFP-tagged, TEF2 promoter) (S. cerevisiae); assay: affinity purification with mass spectrometry; remark: listed apart in the source

| binding [1] | binding [2] | Molecule |
| --- | --- | --- |
| binds | – | Myo2 (type V myosin motor protein) (from UniProt P19524 1-1574) |
| binds | – | Pln1 (structural LD protein) (S. cerevisiae (endogenous in yeast)) |
| – | binds | Ldo16 (LD surface protein) (protein, UniProt P40219 1-148) MVSTATFFFFVYLTLFVVIGFFSSLFIIPLLGISFVFAIGVVSFGFCSNMSFKMAQLIYVRADAFLKKVLDKMALQTQPAQLQEPQEPLSTLRPVSNPTIPSPLRQTARPSKFVTEEDVIFEPVSAQSAIARSLETTANKAGNKFQLS |
